# Reference: PMC4666391 (Nucleic Acids Research, 2015)
# Chains of the proteins cited; added tags and fusions are not shown. Lines headed by an entry give the natural chain unless they say otherwise; changes in a name come on top.
# UniProt P29469: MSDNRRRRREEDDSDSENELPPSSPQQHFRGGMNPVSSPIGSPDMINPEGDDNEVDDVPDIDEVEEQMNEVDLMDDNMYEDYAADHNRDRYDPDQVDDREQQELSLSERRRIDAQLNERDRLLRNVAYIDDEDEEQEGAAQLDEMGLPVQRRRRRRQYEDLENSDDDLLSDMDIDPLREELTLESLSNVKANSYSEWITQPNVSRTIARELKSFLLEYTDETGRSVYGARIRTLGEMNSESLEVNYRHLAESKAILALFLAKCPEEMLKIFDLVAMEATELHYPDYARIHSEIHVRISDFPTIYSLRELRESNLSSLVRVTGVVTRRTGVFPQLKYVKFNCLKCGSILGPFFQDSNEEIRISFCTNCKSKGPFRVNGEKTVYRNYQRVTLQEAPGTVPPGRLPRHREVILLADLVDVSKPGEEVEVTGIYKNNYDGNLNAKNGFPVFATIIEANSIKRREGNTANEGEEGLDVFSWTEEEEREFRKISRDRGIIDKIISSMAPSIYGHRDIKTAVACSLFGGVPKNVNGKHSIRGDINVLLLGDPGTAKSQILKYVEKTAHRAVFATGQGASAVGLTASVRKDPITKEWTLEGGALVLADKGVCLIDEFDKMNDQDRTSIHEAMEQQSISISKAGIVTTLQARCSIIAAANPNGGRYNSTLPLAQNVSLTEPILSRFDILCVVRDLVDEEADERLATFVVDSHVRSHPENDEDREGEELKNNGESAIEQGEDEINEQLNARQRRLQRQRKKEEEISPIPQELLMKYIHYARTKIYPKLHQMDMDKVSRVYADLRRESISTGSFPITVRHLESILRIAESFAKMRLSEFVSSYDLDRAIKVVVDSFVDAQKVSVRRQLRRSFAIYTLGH
# UniProt P24279: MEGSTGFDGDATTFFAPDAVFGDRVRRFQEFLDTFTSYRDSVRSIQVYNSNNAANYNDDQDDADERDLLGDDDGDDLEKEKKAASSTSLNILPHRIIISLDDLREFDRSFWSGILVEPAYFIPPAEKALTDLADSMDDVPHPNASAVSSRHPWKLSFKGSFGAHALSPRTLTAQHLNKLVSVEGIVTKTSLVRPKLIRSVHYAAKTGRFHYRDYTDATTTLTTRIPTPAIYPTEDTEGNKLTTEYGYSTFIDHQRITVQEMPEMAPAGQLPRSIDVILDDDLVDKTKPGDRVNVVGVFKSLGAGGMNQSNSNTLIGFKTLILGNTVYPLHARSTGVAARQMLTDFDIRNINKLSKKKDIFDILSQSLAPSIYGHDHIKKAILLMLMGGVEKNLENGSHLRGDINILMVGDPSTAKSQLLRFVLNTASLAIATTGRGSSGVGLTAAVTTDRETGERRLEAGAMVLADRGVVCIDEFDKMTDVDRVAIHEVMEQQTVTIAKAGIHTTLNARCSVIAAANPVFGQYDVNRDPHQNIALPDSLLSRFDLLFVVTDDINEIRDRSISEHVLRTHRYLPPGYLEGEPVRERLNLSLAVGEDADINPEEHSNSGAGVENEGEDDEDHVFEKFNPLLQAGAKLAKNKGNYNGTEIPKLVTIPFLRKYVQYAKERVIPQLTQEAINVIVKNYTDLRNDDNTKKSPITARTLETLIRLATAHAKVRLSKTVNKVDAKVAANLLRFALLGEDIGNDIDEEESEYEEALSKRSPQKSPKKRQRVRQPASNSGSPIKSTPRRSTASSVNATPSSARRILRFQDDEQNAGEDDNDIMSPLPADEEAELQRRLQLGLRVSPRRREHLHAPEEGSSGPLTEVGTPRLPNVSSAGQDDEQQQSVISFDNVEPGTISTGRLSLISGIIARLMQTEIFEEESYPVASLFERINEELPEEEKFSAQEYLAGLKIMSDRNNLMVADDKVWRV
# UniProt P30665: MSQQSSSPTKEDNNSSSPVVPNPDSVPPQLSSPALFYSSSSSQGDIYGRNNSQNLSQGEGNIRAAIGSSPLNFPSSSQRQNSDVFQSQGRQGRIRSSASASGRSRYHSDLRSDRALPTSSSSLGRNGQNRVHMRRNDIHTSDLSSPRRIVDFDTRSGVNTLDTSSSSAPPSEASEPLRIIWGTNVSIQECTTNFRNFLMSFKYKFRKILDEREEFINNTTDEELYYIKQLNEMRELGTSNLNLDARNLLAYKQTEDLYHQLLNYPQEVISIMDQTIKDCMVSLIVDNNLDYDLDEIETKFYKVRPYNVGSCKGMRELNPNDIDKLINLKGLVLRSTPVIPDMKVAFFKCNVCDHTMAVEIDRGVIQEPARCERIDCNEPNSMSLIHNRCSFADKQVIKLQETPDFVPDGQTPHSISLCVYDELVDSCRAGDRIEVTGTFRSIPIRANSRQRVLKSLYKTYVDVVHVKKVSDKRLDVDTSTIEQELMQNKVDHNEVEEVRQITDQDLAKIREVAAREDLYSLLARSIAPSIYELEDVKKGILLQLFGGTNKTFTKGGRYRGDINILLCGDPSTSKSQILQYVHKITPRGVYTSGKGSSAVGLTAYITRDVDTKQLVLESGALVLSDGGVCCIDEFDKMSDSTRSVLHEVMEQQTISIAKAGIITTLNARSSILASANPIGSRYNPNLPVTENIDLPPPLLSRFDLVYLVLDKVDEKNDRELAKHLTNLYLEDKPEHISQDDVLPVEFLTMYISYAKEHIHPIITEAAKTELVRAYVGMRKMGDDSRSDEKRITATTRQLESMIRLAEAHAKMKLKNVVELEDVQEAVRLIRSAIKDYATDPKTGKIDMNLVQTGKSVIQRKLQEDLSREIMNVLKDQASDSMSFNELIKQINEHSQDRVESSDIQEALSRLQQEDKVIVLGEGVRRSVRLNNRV
# UniProt P29496: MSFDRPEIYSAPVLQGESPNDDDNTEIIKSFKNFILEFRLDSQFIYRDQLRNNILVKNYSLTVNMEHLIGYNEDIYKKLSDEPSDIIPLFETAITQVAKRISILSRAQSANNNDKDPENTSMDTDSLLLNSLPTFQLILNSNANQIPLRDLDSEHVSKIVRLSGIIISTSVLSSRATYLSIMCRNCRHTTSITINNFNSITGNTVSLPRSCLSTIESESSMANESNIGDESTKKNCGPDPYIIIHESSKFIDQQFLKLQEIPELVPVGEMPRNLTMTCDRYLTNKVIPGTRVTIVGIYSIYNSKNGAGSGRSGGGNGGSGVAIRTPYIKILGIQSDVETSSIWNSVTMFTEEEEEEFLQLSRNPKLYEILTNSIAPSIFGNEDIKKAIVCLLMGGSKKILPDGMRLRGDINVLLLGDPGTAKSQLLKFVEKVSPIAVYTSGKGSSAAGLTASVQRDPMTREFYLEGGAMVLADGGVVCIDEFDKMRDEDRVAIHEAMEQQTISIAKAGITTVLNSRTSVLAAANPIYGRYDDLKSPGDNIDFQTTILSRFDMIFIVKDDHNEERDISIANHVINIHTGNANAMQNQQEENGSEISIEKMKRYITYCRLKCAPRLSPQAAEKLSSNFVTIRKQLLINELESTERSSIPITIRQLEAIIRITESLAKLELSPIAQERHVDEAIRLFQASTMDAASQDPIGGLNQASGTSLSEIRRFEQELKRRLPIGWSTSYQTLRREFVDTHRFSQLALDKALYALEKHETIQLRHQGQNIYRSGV
# UniProt P53091: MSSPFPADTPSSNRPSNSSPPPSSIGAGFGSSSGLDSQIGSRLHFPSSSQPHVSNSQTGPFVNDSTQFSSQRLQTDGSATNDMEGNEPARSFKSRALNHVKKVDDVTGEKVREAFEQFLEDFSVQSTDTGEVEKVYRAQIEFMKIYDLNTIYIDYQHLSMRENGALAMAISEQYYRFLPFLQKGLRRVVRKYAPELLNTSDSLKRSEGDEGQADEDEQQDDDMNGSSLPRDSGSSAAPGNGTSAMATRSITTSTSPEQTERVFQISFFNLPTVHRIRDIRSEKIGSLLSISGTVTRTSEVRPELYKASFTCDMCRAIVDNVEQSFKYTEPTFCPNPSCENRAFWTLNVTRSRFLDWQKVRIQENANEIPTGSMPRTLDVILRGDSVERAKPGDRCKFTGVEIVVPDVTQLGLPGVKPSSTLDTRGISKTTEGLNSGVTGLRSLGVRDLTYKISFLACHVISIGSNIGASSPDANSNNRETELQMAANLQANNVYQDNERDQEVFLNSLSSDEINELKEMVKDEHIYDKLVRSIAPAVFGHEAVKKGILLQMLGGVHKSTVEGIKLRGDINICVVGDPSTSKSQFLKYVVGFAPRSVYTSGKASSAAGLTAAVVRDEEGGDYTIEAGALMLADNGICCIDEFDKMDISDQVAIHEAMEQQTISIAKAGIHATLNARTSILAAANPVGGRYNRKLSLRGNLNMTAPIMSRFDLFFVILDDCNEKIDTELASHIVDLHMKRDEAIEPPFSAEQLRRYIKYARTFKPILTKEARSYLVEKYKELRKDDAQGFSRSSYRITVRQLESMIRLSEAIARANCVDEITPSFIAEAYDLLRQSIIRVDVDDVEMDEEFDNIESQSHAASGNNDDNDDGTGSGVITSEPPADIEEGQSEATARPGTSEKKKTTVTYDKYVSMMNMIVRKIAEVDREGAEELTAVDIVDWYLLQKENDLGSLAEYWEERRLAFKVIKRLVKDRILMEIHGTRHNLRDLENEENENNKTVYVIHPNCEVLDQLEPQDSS
# UniProt P38132: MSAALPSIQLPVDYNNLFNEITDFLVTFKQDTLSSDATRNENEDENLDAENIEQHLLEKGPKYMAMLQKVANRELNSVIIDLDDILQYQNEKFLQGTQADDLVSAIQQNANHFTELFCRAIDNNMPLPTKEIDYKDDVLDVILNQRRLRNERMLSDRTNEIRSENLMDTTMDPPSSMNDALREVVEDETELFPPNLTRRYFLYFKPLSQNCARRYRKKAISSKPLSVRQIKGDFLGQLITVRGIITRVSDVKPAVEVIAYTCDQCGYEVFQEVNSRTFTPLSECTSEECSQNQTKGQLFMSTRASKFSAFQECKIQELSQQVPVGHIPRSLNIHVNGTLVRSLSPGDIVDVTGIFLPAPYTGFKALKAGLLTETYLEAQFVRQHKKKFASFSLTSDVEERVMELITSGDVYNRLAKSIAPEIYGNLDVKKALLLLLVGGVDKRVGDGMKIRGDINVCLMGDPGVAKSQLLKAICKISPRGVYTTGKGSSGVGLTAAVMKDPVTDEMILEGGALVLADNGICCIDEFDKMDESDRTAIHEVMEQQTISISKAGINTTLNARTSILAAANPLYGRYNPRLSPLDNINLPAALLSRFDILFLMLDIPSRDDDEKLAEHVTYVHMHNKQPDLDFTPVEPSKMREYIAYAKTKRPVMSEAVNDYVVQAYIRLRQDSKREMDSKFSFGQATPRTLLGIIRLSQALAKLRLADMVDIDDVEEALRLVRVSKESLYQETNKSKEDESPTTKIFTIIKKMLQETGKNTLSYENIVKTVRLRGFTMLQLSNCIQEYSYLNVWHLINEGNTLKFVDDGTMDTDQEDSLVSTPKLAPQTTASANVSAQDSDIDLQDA
# Where two headings read alike, the source gives them in different places. No constants are given. Whether binding was seen depends on the method and setting. For some assays here: In cells and extracts the contact can be indirect. Some binding calls cover weakened binding; strength is not graded here. For some assays here: Tags and fused reporters may be left off the sequences shown.
# B1: Sld7 (in vitro transcribed and translated) (protein, UniProt Q08457 1-257)
# chain: MSRKLCTLNFTLSGKQGSLVIRDIQLWSNRPTASKSTSELRGQFIQYVDLAKLPLWVRSTNMNTYRCYSTSATAQAYFKSKLRNANRGIVIELFDKVDQRSQEPAYLIIFRENTELNCFQVDLTMKHEFDGQVTKLKQDIGKTRASVSKEGSIDIIIQQSQQRKIGTKTEVYRNVHINDKRLQFNETLSKLILGGLRLRGISNSITDYQKLYKITFDAAEFTHRDELKRISMGSGEEVSFESLQETVETLLKLFTKS
# modifications: S^35 labeled
# B2: Sld2 (purified) (natural protein, S. cerevisiae, UniProt P34252 1-453, looked up)
# chain: MYSFELDKLKIELKTWEHDFIDKNKREPTRDDIKSLRTVRQMYKQYSTLKKKQSLQRQKVDTQESVELPAHKKDHDEVVEIGPTPQVYGKAISIFDMNLSPIKPIYMTFTNNIDVNNDNSKTISNESSPRKTILLKSSPADRTLVAEPISSVKRQLNFQMLNASSTRTPTSSPCKNRNGKLVEIKKCSPTINPPLESGKPSGYYGPNSPLKLDEENIHLNISLNSSTKRRLQIAYPSLQKTPSKDQADISTSFSPSPLIRRPLTKSLIELAREHTEIVKEFGVLQEEDIEEEEEGEEGENGYDEKNHEDDFGLEDELIRPKVVKDIFQEDDDNDDSQAREDTFIRKRPKRRKVIRRLRDNDPETETAGFERDVHKELVKLKRRKVAEFLGSTSQISDTEFEHDPEASSGVVSSEQKPTAKRKGRKKYNLVSNNFRRLKLPKKNRFSNGRWGRR
# notes: Sld2, S. cerevisiae; it may or may not be the same preparation as GST-Sld2; also called purified Sld2; source: purified
# B3: Sld3 (in vitro transcribed and translated) (protein, UniProt P53135 1-668)
# chain: METWEVIASVKEATKGLDLSLDHPLIIKSEDVPSNILQLLQQKNRRQLKHICMKSRKEYFLLEEYGPGFWVKWPYNYFNGYSLPERRTEVVTTVERERAKRETLKTWDELKFKELLHLWSEEPKGSCKLEKDKDLKLDMNPPDMKGESKINDYYSDPKEYIESKYYDALFSIHTPLAYFVKSNLVRLKNTCRTKYGSDSYKIAYQAMLQKFLLSIVQFKDRHDNRLLLEPFSSPIADEKRKNCLTKFVIQDENKNSSTIADLCVVLKSREIKLQILLLLEIIGLNDLDWNFRDFEKKYKLKLKKRSLNLTKKGLVRRRSKKKTSEKDKGIERITTSLDYCEQLDLYLDRACILDILLSSETPNPDAIEASNGTIQEHKKNILDKSKEASLVGFINYVLIPYFNKKVPHAVEFIIQKLKGPSMRPKRALKKVNDSTNVSSPNTVETYNRLSTSQRASRSSIINSVPSSPALRRVDANLFSRKSIASPTPELLNSRTNSNLNEFLESETRSLKRPSQLGRTKSDLTMNHLQKRQFSVSDLSTTRVPNSSTITLKTPFSHSTINAYKTMNNSFRRVGKRKDINETIRLHERVDSEENVQVQATPAVKKRTVTPNKKAQLQSIIESPLNFKDDDTHEGRKNTSNITSTPTNKPPENSSKRRVRRRLFAPEST
# modifications: S^35 labeled
# B4: Sld2 (in vitro transcribed and translated) (protein, UniProt P34252 1-453)
# chain: MYSFELDKLKIELKTWEHDFIDKNKREPTRDDIKSLRTVRQMYKQYSTLKKKQSLQRQKVDTQESVELPAHKKDHDEVVEIGPTPQVYGKAISIFDMNLSPIKPIYMTFTNNIDVNNDNSKTISNESSPRKTILLKSSPADRTLVAEPISSVKRQLNFQMLNASSTRTPTSSPCKNRNGKLVEIKKCSPTINPPLESGKPSGYYGPNSPLKLDEENIHLNISLNSSTKRRLQIAYPSLQKTPSKDQADISTSFSPSPLIRRPLTKSLIELAREHTEIVKEFGVLQEEDIEEEEEGEEGENGYDEKNHEDDFGLEDELIRPKVVKDIFQEDDDNDDSQAREDTFIRKRPKRRKVIRRLRDNDPETETAGFERDVHKELVKLKRRKVAEFLGSTSQISDTEFEHDPEASSGVVSSEQKPTAKRKGRKKYNLVSNNFRRLKLPKKNRFSNGRWGRR
# modifications: S^35 labeled
# Experiments:
# GST-Sld2 (S. cerevisiae) [1] = target: T1, GST-Sld2 (S. cerevisiae) (UniProt P34252); experiment: pull-down; GST-Sld2 (400 ng) or equimolar GST immobilized on magnetic beads, incubated with S^35 labeled in vitro transcribed and translated protein; SDS-PAGE, autoradiography; 5% input; only the target purified
# T1 sequence: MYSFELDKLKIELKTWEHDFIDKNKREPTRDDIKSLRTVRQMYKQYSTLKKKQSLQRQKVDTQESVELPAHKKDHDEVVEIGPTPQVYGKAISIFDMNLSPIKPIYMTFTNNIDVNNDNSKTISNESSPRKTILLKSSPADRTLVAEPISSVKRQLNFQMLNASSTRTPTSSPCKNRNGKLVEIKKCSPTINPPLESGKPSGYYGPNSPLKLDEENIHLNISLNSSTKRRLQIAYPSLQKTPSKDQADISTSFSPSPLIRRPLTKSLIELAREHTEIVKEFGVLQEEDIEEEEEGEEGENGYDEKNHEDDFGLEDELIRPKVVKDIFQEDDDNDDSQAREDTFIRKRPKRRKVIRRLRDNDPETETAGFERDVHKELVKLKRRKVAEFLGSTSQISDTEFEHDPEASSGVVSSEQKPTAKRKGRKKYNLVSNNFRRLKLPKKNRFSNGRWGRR
# GST-Sld2 (S. cerevisiae) [2] = target: T1, GST-Sld2 (S. cerevisiae); experiment: as above; remark: listed apart in the source
# [3] = target: pre-RC (MCM2–7 double-hexamer loaded on pUC19-ARS1 DNA) (S. cerevisiae) (UniProt P29469+P24279+P30665+P29496+P53091+P38132); experiment: SEC; gel-filtration based pre-RC assay: one factor (40 nM) added alone to pre-RC assembled in solution on pUC19-ARS1, no DDK; 1–30 min at 27°C with competitor DNA and BSA, then 200 mM KAc, Sephacryl S400 HR spin column; DNA-bound proteins in the eluate by SDS-PAGE; both purified
# [4] = target: T2, Sld3 (purified) (S. cerevisiae) (UniProt P53135); experiment: pull-down; Sld3 (150 ng) immobilized on anti-Sld3 magnetic beads or control beads, incubated with S^35 labeled in vitro transcribed and translated Sld2; autoradiography; 5% input; only the target purified
# T2 sequence: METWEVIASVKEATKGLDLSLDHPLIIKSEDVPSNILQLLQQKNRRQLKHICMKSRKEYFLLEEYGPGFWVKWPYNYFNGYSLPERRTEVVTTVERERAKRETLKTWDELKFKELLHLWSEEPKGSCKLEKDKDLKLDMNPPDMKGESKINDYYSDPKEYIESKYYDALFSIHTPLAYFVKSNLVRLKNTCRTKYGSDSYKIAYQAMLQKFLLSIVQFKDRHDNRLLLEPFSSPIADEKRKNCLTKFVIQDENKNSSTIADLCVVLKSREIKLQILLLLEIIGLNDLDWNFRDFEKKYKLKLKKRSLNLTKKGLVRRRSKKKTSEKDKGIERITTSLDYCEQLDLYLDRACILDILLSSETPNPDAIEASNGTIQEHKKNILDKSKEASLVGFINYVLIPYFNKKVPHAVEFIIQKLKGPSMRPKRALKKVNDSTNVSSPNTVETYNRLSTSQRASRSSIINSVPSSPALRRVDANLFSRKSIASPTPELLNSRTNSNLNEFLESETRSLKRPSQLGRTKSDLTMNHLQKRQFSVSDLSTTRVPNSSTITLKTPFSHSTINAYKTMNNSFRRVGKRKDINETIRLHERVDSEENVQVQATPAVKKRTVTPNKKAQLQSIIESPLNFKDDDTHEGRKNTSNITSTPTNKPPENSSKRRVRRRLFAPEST
molecule,measurement,setting,value
Mcm2 (in vitro transcribed and translated) (from UniProt P29469 1-868),binding,GST-Sld2 (S. cerevisiae) [1],binds
B1,binding,GST-Sld2 (S. cerevisiae) [2],binds
B2,binding,[3],binds
B3,binding,GST-Sld2 (S. cerevisiae) [2],binds
B4,binding,[4],binds
